From PMC7154835
These are yes or no findings as the source states them, for the method shown. Binding seen in cells or lysates may run through a third protein. Where a sequence is shown, tags or fusion partners need not be part of it.

Molecular target: T1, FLAG-tagged MEMB12 (UniProt Q9FK28)
T1 sequence: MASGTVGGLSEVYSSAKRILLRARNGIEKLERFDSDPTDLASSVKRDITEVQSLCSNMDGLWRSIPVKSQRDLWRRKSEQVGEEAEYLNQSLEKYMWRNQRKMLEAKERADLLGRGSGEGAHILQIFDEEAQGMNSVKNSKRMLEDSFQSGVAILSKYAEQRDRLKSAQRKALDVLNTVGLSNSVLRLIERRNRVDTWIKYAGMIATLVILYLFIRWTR
Assay: co-IP; HA-AtAGO2 co-expressed with AtXRN4-FLAG or MEMB12-FLAG in N. benthamiana, 72 hpi; leaf extract (20 mM Tris-HCl pH 7.5, 300 mM NaCl, 5 mM MgCl2, 5 mM DTT, 0.5% TWEEN-20) incubated with FLAG beads 4 h; blot with anti-HA

- binding: no binding
B1: HA-tagged Arabidopsis Argonaute 2 (AtAGO2) (protein, UniProt Q9SHF3 1-1014)
chain: MERGGYRGGRGDGRGRGGRGYGGGGGGGEQGRDRGYGGGEQGRGRGSERGGGNRGQGRGEQQDFRSQSQRGPPPGHGGRGTTQFQQPRPQVAPQPSQAPASYAGSVGGVAGRGAWGRKPQVPSDSASPSTSTTVVSEPVRVAEVMNLKPSVQVATSDRKEPMKRPDRGGVVAVRRVNLYVNHYKVNFNPESVIRHYDVEIKGEIPTKKVSRFELAMVRDKVFTDNPDEFPLAMTAYDGQKNIFSAVELPTGSYKVEYPKTEEMRGRSYTFTIKQVNVLKLGDLKEYMTGRSSFNPRDVLQGMDVVMKEHPSKCMITVGKSFFTRETEPDEDFRFGVIAAKGYRHTLKPTAQGLSLCLDYSVLAFRKAMSVIEYLKLYFNWSDMRQFRRRDVEEELIGLKVTVNHRKNKQKLTIVGLSMQNTKDIKFDLIDQEGNEPPRKTSIVEYFRIKYGRHIVHKDIPCLDLGKNGRQNFVPMEFCDLVEGQIYPKDNLDKDSALWLKKLSLVNPQQRQRNIDKMIKARNGPSGGEIIGNFGLKVDTNMTPVEGRVLKAPSLKLAERGRVVREEPNPRQNNQWNLMKKGVTRGSIVKHWAVLDFTASERFNKMPNDFVDNLIDRCWRLGMQMEAPIVYKTSRMETLSNGNAIEELLRSVIDEASRKHGGARPTLVLCAMSRKDDGYKTLKWIAETKLGLVTQCFLTGPATKGGDQYRANLALKMNAKVGGSNVELMDTFSFFKKEDEVMFIGADVNHPAARDKMSPSIVAVVGTLNWPEANRYAARVIAQPHRKEEIQGFGDACLELVKAHVQATGKRPNKIVIFRDGVSDAQFDMVLNVELLDVKLTFEKNGYNPKITVIVAQKRHQTRFFPATNNDGSDKGNVPSGTVVDTKVIHPYEYDFYLCSHHGGIGTSKPTHYYTLWDELGFTSDQVQKLIFEMCFTFTRCTKPVSLVPPVYYADMVAFRGRMYHEASSREKNFKQPRGASTSAASLASSLSSLTIEDKAIFKLHAELENVMFFV
